At least one compound was matched to its structure with a doubt left.
Key:
MCA205 tumors = assay: Tumor volume, tranilast pretreatment plus anti-PD-L1 therapy; format: in vivo, mice; settings: tranilast pretreatment of 100 mg/kg or 200 mg/kg, then anti-PD-L1
E0771 tumors = assay: as above; format: in vivo, mice; settings: tranilast pretreatment of 100 mg/kg or 200 mg/kg, then anti-PD-L1

COc1ccc(/C=C/C(=O)Nc2ccccc2C(=O)O)cc1OC [tranilast]
tumor volume / potentiation of immunotherapy (MCA205 tumors): significantly potentiated tumors to immunotherapy
tumor volume / potentiation of immunotherapy (E0771 tumors): significantly potentiated tumors to immunotherapy
